# Experimental data published in US20250283871A1, “COMPOSITIONS AND METHODS FOR MODULATING THE INTERACTION BETWEEN SS18-SSX FUSION ONCOPROTEIN AND NUCLEOSOMES” (Dana-Farber Cancer Institute, Inc., priority 2020, published 2025).
# System: BAF complex subunits and histone proteins
# Experiment: Mass spectrometry proteomics of purified HA-SS18 WT and HA-SS18-SSX1 complexes (Tables 5A-5E)
# Parameters: species or system human
# Settings: for Total / Unique: HA-SS18SSX1_CHR_peptides; for Total: total peptides of the identified protein; for Unique: unique peptides of the identified protein
# [1] = HA-SS18SSX1_NE_peptides: protein co-purified with HA-SS18-SSX1 BAF complexes from soluble nuclear extract (NE), HEK-293T cells
# [2] = HA-SS18WT_CHR_peptides: protein identified in HA-SS18 WT BAF complex purification from nuclease-treated solubilized chromatin (CHR), HEK-293T
# [3] = HA-SS18WT_NE_peptides: proteins co-purified with HA-SS18 WT from nuclear extract (NE), HEK-293T
# [4] = HA-SS18WT_CHR_peptides: HA-SS18 WT purification from nuclease-treated solubilized chromatin (CHR), HEK-293T, label = protein identified
# [5] = HA-SS18SSX1_CHR_peptides: protein identified in the HA-SS18-SSX1 purification from solubilized chromatin (CHR), HEK-293T
# [6] = HA-SS18SSX1 purification, NE (soluble nuclear extract) fraction, HEK-293T, peptides per identified protein
# [7] = HA-SS18WT_NE_peptides: HA-SS18 WT complexes purified from nuclear extract (NE), HEK-293T, label = protein identified (Gene Symbol)
Molecule,Total,Unique,Total (peptides) [1],Unique (peptides) [1],Total (peptides) [4],Unique (peptides) [4],other results
"HELLS (protein, UniProt Q9NRZ9 1-838, looked up) Lymphoid-specific helicase: MPAERPAGSGGSEAPAMVEQLDTAVITPAMLEEEEQLEAAGLERERKMLEKARMSWDRESTEIRYRRLQHLLEKSNIYSKFLLTKMEQQQLEEQKKKEKLERKKESLKVKKGKNSIDASEEKPVMRKKRGREDESYNISEVMSKEEILSVAKKNKKENEDENSSSTNLCVEDLQKNKDSNSIIKDRLSETVRQNTKFFFDPVRKCNGQPVPFQQPKHFTGGVMRWYQVEGMEWLRMLWENGINGILADEMGLGKTVQCIATIALMIQRGVPGPFLVCGPLSTLPNWMAEFKRFTPDIPTMLYHGTQEERQKLVRNIYKRKGTLQIHPVVITSFEIAMRDRNALQHCYWKYLIVDEGHRIKNMKCRLIRELKRFNADNKLLLTGTPLQNNLSELWSLLNFLLPDVFDDLKSFESWFDITSLSETAEDIIAKEREQNVLHMLHQILTPFLLRRLKSDVALEVPPKREVVVYAPLSKKQEIFYTAIVNRTIANMFGSSEKETIELSPTGRPKRRTRKSINYSKIDDFPNELEKLISQIQPEVDRERAVVEVNIPVESEVNLKLQNIMMLLRKCCNHPYLIEYPIDPVTQEFKIDEELVTNSGKFLILDRMLPELKKRGHKVLLFSQMTSMLDILMDYCHLRDFNFSRLDGSMSYSEREKNMHSFNTDPEVFIFLVSTRAGGLGINLTAADTVIIYDSDWNPQSDLQAQDRCHRIGQTKPVVVYRLVTANTIDQKIVERAAAKRKLEKLIIHKNHFKGGQSGLNLSKNFLDPKELMELLKSRDYEREIKGSREKVISDKDLELLLDRSDLIDQMNASGPIKEKMGIFKILENSEDSSPECLF",3,3,2,2,–,–,Total (total peptides) [2]: 1; Unique (unique peptides) [2]: 1; Total (peptides) [3]: 2; Unique (peptides) [3]: 2
"TCOF1 (protein, UniProt Q13428 1-1488, looked up) Treacle protein: MAEARKRRELLPLIYHHLLRAGYVRAAREVKEQSGQKCFLAQPVTLLDIYTHWQQTSELGRKRKAEEDAALQAKKTRVSDPISTSESSEEEEEAEAETAKATPRLASTNSSVLGADLPSSMKEKAKAETEKAGKTGNSMPHPATGKTVANLLSGKSPRKSAEPSANTTLVSETEEEGSVPAFGAAAKPGMVSAGQADSSSEDTSSSSDETDVEGKPSVKPAQVKASSVSTKESPARKAAPAPGKVGDVTPQVKGGALPPAKRAKKPEEESESSEEGSESEEEAPAGTRSQVKASEKILQVRAASAPAKGTPGKGATPAPPGKAGAVASQTKAGKPEEDSESSSEESSDSEEETPAAKALLQAKASGKTSQVGAASAPAKESPRKGAAPAPPGKTGPAVAKAQAGKREEDSQSSSEESDSEEEAPAQAKPSGKAPQVRAASAPAKESPRKGAAPAPPRKTGPAAAQVQVGKQEEDSRSSSEESDSDREALAAMNAAQVKPLGKSPQVKPASTMGMGPLGKGAGPVPPGKVGPATPSAQVGKWEEDSESSSEESSDSSDGEVPTAVAPAQEKSLGNILQAKPTSSPAKGPPQKAGPVAVQVKAEKPMDNSESSEESSDSADSEEAPAAMTAAQAKPALKIPQTKACPKKTNTTASAKVAPVRVGTQAPRKAGTATSPAGSSPAVAGGTQRPAEDSSSSEESDSEEEKTGLAVTVGQAKSVGKGLQVKAASVPVKGSLGQGTAPVLPGKTGPTVTQVKAEKQEDSESSEEESDSEEAAASPAQVKTSVKKTQAKANPAAARAPSAKGTISAPGKVVTAAAQAKQRSPSKVKPPVRNPQNSTVLARGPASVPSVGKAVATAAQAQTGPEEDSGSSEEESDSEEEAETLAQVKPSGKTHQIRAALAPAKESPRKGAAPTPPGKTGPSAAQAGKQDDSGSSSEESDSDGEAPAAVTSAQVIKPPLIFVDPNRSPAGPAATPAQAQAASTPRKARASESTARSSSSESEDEDVIPATQCLTPGIRTNVVTMPTAHPRIAPKASMAGASSSKESSRISDGKKQEGPATQVSKKNPASLPLTQAALKVLAQKASEAQPPVARTQPSSGVDSAVGTLPATSPQSTSVQAKGTNKLRKPKLPEVQQATKAPESSDDSEDSSDSSSGSEEDGEGPQGAKSAHTLGPTPSRTETLVEETAAESSEDDVVAPSQSLLSGYMTPGLTPANSQASKATPKLDSSPSVSSTLAAKDDPDGKQEAKPQQAAGMLSPKTGGKEAASGTTPQKSRKPKKGAGNPQASTLALQSNITQCLLGQPWPLNEAQVQASVVKVLTELLEQERKKVVDTTKESSRKGWESRKRKLSGDQPAARTPRSKKKKKLGAGEGGEASVSPEKTSTTSKGKAKRDKASGDVKEKKGKGSLGSQGAKDEPEEELQKGMGTVEGGDQSNPKSKKEKKKSDKRKKDKEKKEKKKKAKKASTKDSESPSQKKKKKKKKTAEQTV",3,3,2,2,–,–,–
"RNF2 (protein, UniProt Q99496 2-336, looked up) E3 ubiquitin-protein ligase …: SQAVQTNGTQPLSKTWELSLYELQRTPQEAITDGLEIVVSPRSLHSELMCPICLDMLKNTMTTKECLHRFCADCIITALRSGNKECPTCRKKLVSKRSLRPDPNFDALISKIYPSRDEYEAHQERVLARINKHNNQQALSHSIEEGLKIQAMNRLQRGKKQQIENGSGAEDNGDSSHCSNASTHSNQEAGPSNKRTKTSDDSGLELDNNNAAMAIDPVMDGASEIELVFRPHPTLMEKDDSAQTRYIKTSGNATVDHLSKYLAVRLALEELRSKGESNQMNLDTASEKQYTIYIATASGQFTVLNGSFSLELVSEKYWKVNKPMELYYAPTKEHK",3,3,–,–,–,–,–
"ESF1 (protein, UniProt Q9H501 2-851, looked up) ESF1 homolog: SSKQEIMSDQRFRRVAKDPRFWEMPEKDRKVKIDKRFRAMFHDKKFKLNYAVDKRGRPISHSTTEDLKRFYDLSDSDSNLSGEDSKALSQKKIKKKKTQTKKEIDSKNLVEKKKETKKANHKGSENKTDLDNSIGIKKMKTSCKFKIDSNISPKKDSKEFTQKNKKEKKNIVQHTTDSSLEEKQRTLDSGTSEIVKSPRIECSKTRREMQSVVQLIMTRDSDGYENSTDGEMCDKDALEEDSESVSEIGSDEESENEITSVGRASGDDDGSEDDEEEDEDEEEDEDEDSEDDDKSDSGPDLARGKGNIETSSEDEDDTADLFPEESGFEHAWRELDKDAPRADEITRRLAVCNMDWDRLKAKDLLALFNSFKPKGGVIFSVKIYPSEFGKERMKEEQVQGPVELLSIPEDAPEKDWTSREKLRDYQFKRLKYYYAVVDCDSPETASKIYEDCDGLEFESSCSFIDLRFIPDDITFDDEPKDVASEVNLTAYKPKYFTSAAMGTSTVEITWDETDHERITMLNRKFKKEELLDMDFQAYLASSSEDEEEIEEELQGDDGVNVEEDGKTKKSQKDDEEQIAKYRQLLQVIQEKEKKGKENDMEMEIKWVPGLKESAEEMVKNKLEGKDKLTPWEQFLEKKKEKKRLKRKQKALAEEASEEELPSDVDLNDPYFAEEVKQIGINKKSVKSAKDGTSPEEEIEIERQKAEMALLMMDEDEDSKKHFNYNKIVEHQNLSKKKKKQLMKKKELIEDDFEVNVNDARFQAMYTSHLFNLDPSDPNFKKTKAMEKILEEKARQRERKEQELTQAIKKKESEIEKESQRKSIDPALSMLIKSIKTKTEQFQARKKQKVK",3,3,–,–,4,3,–
"HNRNPM (protein, UniProt P52272 2-730, looked up) Heterogeneous nuclear …: AAGVEAAAEVAATEIKMEEESGAPGVPSGNGAPGPKGEGERPAQNEKRKEKNIKRGGNRFEPYANPTKRYRAFITNIPFDVKWQSLKDLVKEKVGEVTYVELLMDAEGKSRGCAVVEFKMEESMKKAAEVLNKHSLSGRPLKVKEDPDGEHARRAMQKVMATTGGMGMGPGGPGMITIPPSILNNPNIPNEIIHALQAGRLGSTVFVANLDYKVGWKKLKEVFSMAGVVVRADILEDKDGKSRGIGTVTFEQSIEAVQAISMFNGQLLFDRPMHVKMDERALPKGDFFPPERPQQLPHGLGGIGMGLGPGGQPIDANHLNKGIGMGNIGPAGMGMEGIGFGINKMGGMEGPFGGGMENMGRFGSGMNMGRINEILSNALKRGEIIAKQGGGGGGGSVPGIERMGPGIDRLGGAGMERMGAGLGHGMDRVGSEIERMGLVMDRMGSVERMGSGIERMGPLGLDHMASSIERMGQTMERIGSGVERMGAGMGFGLERMAAPIDRVGQTIERMGSGVERMGPAIERMGLSMERMVPAGMGAGLERMGPVMDRMATGLERMGANNLERMGLERMGANSLERMGLERMGANSLERMGPAMGPALGAGIERMGLAMGGGGGASFDRAIEMERGNFGGSFAGSFGGAGGHAPGVARKACQIFVRNLPFDFTWKMLKDKFNECGHVLYADIKMENGKSKGCGVVKFESPEVAERACRMMNGMKLSGREIDVRIDRNA",–,–,–,–,27,15,Total (total peptides) [5]: 38; Unique (unique peptides) [5]: 24; Total (total peptides) [6]: 30; Unique (unique peptides) [6]: 15; Total (peptides) [7]: 29; Unique (peptides) [7]: 20
"WDR36 (protein, UniProt Q8NI36 1-895, looked up) WD repeat-containing protein …: MERASERRTASALFAGFRALGLFSNDIPHVVRFSALKRRFYVTTCVGKSFHTYDVQKLSLVAVSNSVPQDICCMAADGRLVFAAYGNVFSAFARNKEIVHTFKGHKAEIHFLQPFGDHIISVDTDGILIIWHIYSEEEYLQLTFDKSVFKISAILHPSTYLNKILLGSEQGSLQLWNVKSNKLLYTFPGWKVGVTALQQAPAVDVVAIGLMSGQVIIHNIKFNETLMKFRQDWGPITSISFRTDGHPVMAAGSPCGHIGLWDLEDKKLINQMRNAHSTAIAGLTFLHREPLLVTNGADNALRIWIFDGPTGEGRLLRFRMGHSAPLTNIRYYGQNGQQILSASQDGTLQSFSTVHEKFNKSLGHGLINKKRVKRKGLQNTMSVRLPPITKFAAEEARESDWDGIIACHQGKLSCSTWNYQKSTIGAYFLKPKELKKDDITATAVDITSCGNFAVIGLSSGTVDVYNMQSGIHRGSFGKDQAHKGSVRGVAVDGLNQLTVTTGSEGLLKFWNFKNKILIHSVSLSSSPNIMLLHRDSGILGLALDDFSISVLDIETRKIVREFSGHQGQINDMAFSPDGRWLISAAMDCSIRTWDLPSGCLIDCFLLDSAPLNVSMSPTGDFLATSHVDHLGIYLWSNISLYSVVSLRPLPADYVPSIVMLPGTCQTQDVEVSEETVEPSDELIEYDSPEQLNEQLVTLSLLPESRWKNLLNLDVIKKKNKPKEPPKVPKSAPFFIPTIPGLVPRYAAPEQNNDPQQSKVVNLGVLAQKSDFCLKLEEGLVNNKYDTALNLLKESGPSGIETELRSLSPDCGGSIEVMQSFLKMIGMMLDRKRDFELAQAYLALFLKLHLKMLPSEPVLLEEITNLSSQVEENWTHLQSLFNQSMCILNYLKSALL",3,3,–,–,3,3,–
